Screen size: about 320,000 compounds; about 22,000 (6.9%) were called active. The inconclusive results got no clear call from the source; some entries with a clear call stand among them for comparison. The call rests on the fitted dose curve; in most records, active means well fitted inhibition curve with a large enough effect; inconclusive means small, poorly fitted or top-dose-only effect, or another doubt; inactive means no such curve, though single readings can be large or run the other way. Potencies beside an inconclusive call are fits to weak or partial responses and may not hold up.
Experiment: Primary qHTS for delayed death inhibitors of the malarial parasite plastid, 96 hour incubation
Conditions: P. falciparum luciferase reporter growth; series mostly up to 28.7 µM
In short: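 Parasite growth measured via integrated firefly luciferase reporter in P. falciparum. Infected erythrocytes at 2% hematocrit, 0.05% parasitemia final were treated 96 hours at 37 C under 5% CO2, and luminescence was read.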
Potency means the concentration at half of the fitted maximal effect.

Compound | Potency
COCCCNCCCOc1ccc(Cl)cc1C(C)(C)C | inconclusive: 4.15 µM [inhibitor, full curve, poor fit]
COc1cccc(C2c3[nH]c4ccccc4c3C[C@H]3C(=O)N(C4CCN(Cc5ccccc5)CC4)CC(=O)N23)c1 (stereo partly specified) | active: 3.7 µM
COc1ccc(CCNC(=O)CSc2ccc(-c3cccs3)nn2)cc1 | inconclusive: 11.7 µM [inhibitor, single point]
Cc1ccc(S(=O)(=O)NCCC(=O)OC(C)C(=O)NC2CC2)cc1 (stereo unspecified) | inactive
COCCNC(=O)COC(=O)CSCc1nc2ccccc2s1 | inactive
CC(C)CN(CCNC(=O)CN1C(=O)COc2ccc(S(=O)(=O)N3CCC(C)CC3)cc21)CC(C)C | active: 11.7 µM
COc1ccc(S(=O)(=O)N2CCc3ccccc32)cc1C(=O)N(CC(C)C)C1CCS(=O)(=O)C1 (stereo unspecified) | inconclusive: 16.5 µM [inhibitor, single point]
Cc1ccc(N2C(=O)CC(N3CCc4ccccc43)C2=O)cc1Cl (stereo unspecified) | inconclusive: 10.4 µM [inhibitor, single point]
Cc1sc2nc(CSCC(=O)Nc3ccccc3C#N)[nH]c(=O)c2c1C | active: 5.22 µM
COc1cc(C)c(C)cc1S(=O)(=O)N1CCN(Cc2ccccc2)CC1 | inactive
N#CC1CN(Cc2ccccc2)CN(Cc2ccccc2)C1 | inconclusive: 4.15 µM [inhibitor, partial curve]
Cc1cnc(Nc2nc3ccccc3o2)nc1C(=O)Nc1cccc(C(F)(F)F)c1 | inactive
CCCNC(=O)C1(S(=O)(=O)c2ccccc2)CC=CC1 | inactive
CCOC(=O)c1c(C)[nH]c(C)c1C(=O)COc1ccc(NC(=O)c2ccco2)cc1 | inactive
Cc1ccc(N(CC(=O)NC2CCCC2)C(=O)CCCC(=O)Nc2ccccn2)cc1C | inconclusive: 13.1 µM [inhibitor, partial curve, poor fit]
CC(C)n1c(NCc2ccccc2O)nc2ccccc21 | inactive
C/C(=N/NC(=O)c1ccco1)c1cccc(NC(=O)c2ccc(C)o2)c1 | inactive
C=C(C)C1CC=C(C)/C(=N\NC(=O)CNc2cccc3ccccc23)C1 (stereo unspecified) | inconclusive: 3.29 µM [inhibitor, full curve]
CC(=O)N1CCc2cc(S(=O)(=O)NC(C(=O)Nc3ccc4c(c3)OCCO4)C(C)C)ccc21 (stereo unspecified) | inconclusive: 1.85 µM [inhibitor, partial curve, poor fit]
O=C(Nc1cccnc1Cl)c1cc(-c2ccc(Cl)cc2)on1 | inactive
CCn1cc(C(=O)NC(=S)Nc2sc3c(c2C(=O)OC)CCCCCC3)cn1 | inconclusive: 18.5 µM [inhibitor, single point]

Single entries from the entries so far:
For Potency, CC(=O)N1CCc2cc(S(=O)(=O)NC(C(=O)Nc3ccc4c(c3)OCCO4)C(C)C)ccc21 (stereo unspecified) is entered as inconclusive: 1.85 µM [inhibitor, partial curve, poor fit]
For Potency, CC(C)n1c(NCc2ccccc2O)nc2ccccc21 is entered as inactive

Reference: PubChem BioAssay AID504834 (National Center for Advancing Translational Sciences (NCATS), 2011)
